Earlier results on one compound are cited in patent US20120094998A1, “Oligomer-Protein Tyrosine Kinase Inhibitor Conjugates” (Nektar Therapeutics, priority 2009, published 2012).

For this data set the following is noted: control compounds of the Caco-2 test; cited from earlier work.

As to `CC(C)NCC(O)COc1ccc(CC(N)=O)cc1` (stereo not shown) [atenolol], the human absorption result is reported as “approximately 50%”.
